Most values lie at the floor of the assay. Slopes are relative: functional sequences can read slightly below zero.
These substances were tested on Saccharomyces cerevisiae PS128 hsf1 delta, HSF1(1-493) fusion (assay: growth estimate (transactivation domain function in HSF1 fusion, heat-shock survival) (a.u. (slope of normalised read count over time)); higher = stronger growth at 37°C, i.e. more transactivation activity). Conditions: library: random library.
Method: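 Random 60-nt DNA library encoding peptides of up to 20 aa, fused to the C-terminus of yeast HSF1 residues 1-493 (C-terminal TAD deleted) and expressed from the native HSF1 promoter on a CEN plasmid in hsf1-deleted S. cerevisiae PS128. Cells were selected at 37°C on -trp 5-FOA plates for 0, 2, 4, 6 and 8 days and amplicons were sequenced. Growth estimate is the slope of a robust linear fit of total-sum-normalised read counts (normalised to the first time point) over time, using at least 2 replicates. Sequences are classed functional (TAD activity) above a threshold of -0.13, set from stop-codon control sequences.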
With ARIGAC the growth estimate was under -0.25. In the case of ARIPRQLPFLPKIGTYIIQD, the growth estimate is reported as under -0.25. Substance ARIPTGSLILVLLRK has a growth estimate of under -0.25. Work on ARITMG yielded a growth estimate of under -0.25. In the case of ARKDGEGGARRYGPRT, the growth estimate is reported as under -0.25. With ARKSEVKLRYGEGGSRSEHA the growth estimate was under -0.25. ARKSSYGPAQEVRYAVREAT gave a growth estimate of under -0.25. For ARKTVDN, the growth estimate was under -0.25. Substance ARLPFIQ has a growth estimate of under -0.25. In the case of ARLPVLEVARVLKRGWSRAP, the growth estimate is reported as under -0.25. Substance ARLSKYSHQAHVLRPWSSDP has a growth estimate of under -0.25. ARLTRAPR showed a growth estimate of under -0.25. In the case of ARNGQRSAQWPELILTGYLC, the growth estimate is reported as under -0.25. ARNSA showed a growth estimate of under -0.25. With ARPGRHLIGLPVMMGIQRQN the growth estimate was under -0.25. For ARPLVVRDQRRLALSSTTGS, the growth estimate was under -0.25. Substance ARREYLNRGYPWV has a growth estimate of under -0.25. For ARRHGER, the growth estimate was under -0.25. For ARRIFVWYHVGDVE, the growth estimate was under -0.25. For ARRNSDTYMPNQVDSSLFSG, the growth estimate was under -0.25. For ARRRIRA, the growth estimate was under -0.25. Substance ARRWDTHWSPFRSDY has a growth estimate of -0.154. For ARRYSKKFRVGSPPGANCQV, the growth estimate was under -0.25. Substance ARSALVGCQRHGMVAADSAY has a growth estimate of under -0.25. ARSEWKPLEPAKGCMSRFLV showed a growth estimate of under -0.25. For ARSGTTRR, the growth estimate was under -0.25. Substance ARSP has a growth estimate of under -0.25. Substance ARSTYRRIAAGSFIAAKML has a growth estimate of under -0.25. Work on ARSVQS yielded a growth estimate of under -0.25. For ARSVTPTGHRCVLLCRRSTH, the growth estimate was under -0.25. ARTHLS was tested, and the growth estimate was under -0.25. Work on ARVLCPVGGSKSTKRK yielded a growth estimate of under -0.25. With ARVVESRTEYVAFYFAFSLA the growth estimate was under -0.25. Work on ARVYTISKNGAPLQGFHAAQ yielded a growth estimate of under -0.25. Substance ARYHTKSRENVPAKCRPKKV has a growth estimate of under -0.25. ARYKETIPRGRVGIDVSCLS was tested, and the growth estimate was under -0.25. Substance ASASRMAVWTVLSYILPD has a growth estimate of under -0.25. ASASSSSVQPRGAIGMVIIQ was tested, and the growth estimate was under -0.25. ASCCGFV was tested, and the growth estimate was under -0.25. In the case of ASCGGQPILSGF, the growth estimate is reported as under -0.25. In the case of ASCYREEQDDNSGYDCNFIP, the growth estimate is reported as under -0.25. ASDNPATEIRPRNYRPGLVR showed a growth estimate of under -0.25. For ASDSIR, the growth estimate was under -0.25. For ASDVFGA, the growth estimate was under -0.25. ASEVGDILFFPLSSFNSAS showed a growth estimate of -0.135. For ASFALSSLLRISKGSNVRGE, the growth estimate was under -0.25. For ASFDLHGG, the growth estimate was under -0.25. ASFGPLCLRLKYDFKRMSMS showed a growth estimate of under -0.25. With ASFVTWGCNPRCTIRGIGPV the growth estimate was under -0.25. In the case of ASGAS, the growth estimate is reported as under -0.25. Work on ASGGRPRIEQ yielded a growth estimate of under -0.25. In the case of ASGSLYK, the growth estimate is reported as under -0.25. Substance ASIAPTFVGCM has a growth estimate of under -0.25. ASILLRRPGRVPSGSTPS showed a growth estimate of under -0.25. With ASKAEISGLDGLGLPTPYAL the growth estimate was under -0.25. For ASKLS, the growth estimate was under -0.25. Substance ASKVALTKSFGIRTGPSHCW has a growth estimate of under -0.25. With ASLLWTVCGEVVMRMQCGER the growth estimate was under -0.25. In the case of ASLNTVRSAGALGTCISTVA, the growth estimate is reported as under -0.25. For ASMG, the growth estimate was under -0.25. ASNASRSTANEIGSIQRWGC was tested, and the growth estimate was under -0.25. Work on ASNGKASGRGVSWNRYDQGA yielded a growth estimate of under -0.25. Work on ASPE yielded a growth estimate of under -0.25. Substance ASPLNPKAFLVHEGARRLFS has a growth estimate of under -0.25. With ASPLRFARSSLLSRSPLVLQ the growth estimate was under -0.25. For ASPSGMGTE, the growth estimate was under -0.25. Substance ASPSGTRDVRVNASVNVPEC has a growth estimate of under -0.25. With ASPVGRMIGEPLLREAQFVS the growth estimate was under -0.25. Substance ASQFTIPRRTKI has a growth estimate of -0.23. Work on ASRGKNICGRHDSQSHRRVA yielded a growth estimate of under -0.25. Work on ASRIESWPIYNLRMLSAQIT yielded a growth estimate of under -0.25. ASRNSSVSNPPNGLGA gave a growth estimate of under -0.25. Work on ASRTGAHPCLVPAVMELLTC yielded a growth estimate of under -0.25. With ASSG the growth estimate was under -0.25. For ASSRQSRVARGSRPVCGPLI, the growth estimate was under -0.25. In the case of ASSTYRP, the growth estimate is reported as -0.25. ASTALLGTWSSESRR gave a growth estimate of under -0.25. ASTDYNVGGNVTYMRRCCAD was tested, and the growth estimate was -0.198. For ASTRVSLVGKAFLGLQRSQG, the growth estimate was under -0.25.
